Reference: article doi:10.1101/2023.07.27.550750

T1: Tmem81-3xFLAG-sfGFP (zebrafish) (UniProt B8JI67)
T1 sequence: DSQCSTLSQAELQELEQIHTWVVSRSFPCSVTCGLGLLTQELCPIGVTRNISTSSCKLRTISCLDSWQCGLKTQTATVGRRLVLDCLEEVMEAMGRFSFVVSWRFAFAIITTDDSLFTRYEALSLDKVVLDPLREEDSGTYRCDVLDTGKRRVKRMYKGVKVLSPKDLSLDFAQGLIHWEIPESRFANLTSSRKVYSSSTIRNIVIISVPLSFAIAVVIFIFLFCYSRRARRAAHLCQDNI

T2: Izumo1-3xFLAG-sfGFP (zebrafish)
T2 sequence: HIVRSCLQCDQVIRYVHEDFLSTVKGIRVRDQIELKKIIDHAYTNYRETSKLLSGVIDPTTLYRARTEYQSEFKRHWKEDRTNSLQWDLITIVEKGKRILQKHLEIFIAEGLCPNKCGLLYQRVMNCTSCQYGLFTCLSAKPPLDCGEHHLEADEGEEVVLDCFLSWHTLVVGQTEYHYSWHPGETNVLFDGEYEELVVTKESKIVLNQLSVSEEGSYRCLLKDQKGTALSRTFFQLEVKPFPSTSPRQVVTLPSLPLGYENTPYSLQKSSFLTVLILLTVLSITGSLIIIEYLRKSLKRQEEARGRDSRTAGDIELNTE


Experiments:
Experiment in all cases: affinity purification with mass spectrometry
[1] = target: T1, Tmem81-3xFLAG-sfGFP (zebrafish)
[2] = target: T1, Tmem81-3xFLAG-sfGFP (zebrafish); remark: listed apart in the source
[3] = target: T2, Izumo1-3xFLAG-sfGFP (zebrafish)
[4] = target: T2, Izumo1-3xFLAG-sfGFP (zebrafish); remark: listed apart in the source

| Binder | binding [1] | binding [2] | binding [3] | binding [4] |
| --- | --- | --- | --- | --- |
| Izumo1 (protein, UniProt A0A2R8QHQ6 17-336) HIVRSCLQCDQVIRYVHEDFLSTVKGIRVRDQIELKKIIDHAYTNYRETSKLLSGVIDPTTLYRARTEYQSEFKRHWKEDRTNSLQWDLITIVEKGKRILQKHLEIFIAEGLCPNKCGLLYQRVMNCTSCQYGLFTCLSAKPPLDCGEHHLEADEGEEVVLDCFLSWHTLVVGQTEYHYSWHPGETNVLFDGEYEELVVTKESKIVLNQLSVSEEGSYRCLLKDQKGTALSRTFFQLEVKPFPSTSPRQVVTLPSLPLGYENTPYSLQKSSFLTVLILLTVLSITGSLIIIEYLRKSLKRQEEARGRDSRTAGDIELNTE | binds | binds |  |  |
| Spaca6 (protein, UniProt A0A8M9PDM1 19-317) FTCYQCFIDENDSRRLCLGHILTEYNVRNVDSCYKTLDRIFNNEEKVIEAGKVGRGYDLTLKNILMAEIMPIVEEFDQQLNYDTEYESRLQAAANNFIAAASSLPRVSGCLPPCGFQVQGAVYNCVTCQYDSCEFPLDCPGKEITVQENNRTQMWCSVPFLLPADVEIVWRYAQDRTMLRERFDDVTVGVDPLYSIPSARPEQSGTYQCEVLSQEQSLVRLYFYLTVVPVAQTYHVHLQDLCAQALRPEPQFPPSFSFWLPRPALLITCLTATMLLIFLSLGAMCRLWYQIRTNVSNPA | binds | binds | binds | binds |
| Tmem81 (protein, UniProt B8JI67 19-259) DSQCSTLSQAELQELEQIHTWVVSRSFPCSVTCGLGLLTQELCPIGVTRNISTSSCKLRTISCLDSWQCGLKTQTATVGRRLVLDCLEEVMEAMGRFSFVVSWRFAFAIITTDDSLFTRYEALSLDKVVLDPLREEDSGTYRCDVLDTGKRRVKRMYKGVKVLSPKDLSLDFAQGLIHWEIPESRFANLTSSRKVYSSSTIRNIVIISVPLSFAIAVVIFIFLFCYSRRARRAAHLCQDNI |  |  | binds | binds |

Where two headings read alike, the source gives them in different places. These are yes or no findings as the source states them, for the method shown. Binding seen in cells or lysates may run through a third protein. These calls come from enrichment with a bait or labelling near it, and not all partners need be listed. Tags and fused reporters may be left off the sequences shown.
